# Values joined by “and” are separate entries in the source; they are usually repeats but may differ in a detail not shown here. Equal entries are not always repeated. Among all 340,000 compounds or so, about 170 (0.05%) were called active. Inconclusive results, whose numbers are uncertain, are shown with a selection of clear calls. Calls follow the shape of the dose curve; as a rule, active = well fitted inhibition curve with a large enough effect in the signal ratio, with a control signal flat (not every such curve was filed as active); inconclusive = small, poorly fitted or top-dose-only effect, or effect the other way, or a change in a side signal; inactive = flat fitted curve, though single readings scatter; the % refers to the signal ratio. Where the call is inconclusive, the potency comes from a doubtful curve fit.
# Test: qHTS Assay to Find Inhibitors of Chronic Active B-Cell Receptor Signaling;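 as to activity change, negative = inhibition: plate controls were basal doxycycline-induced cells for no effect and cells given 10 µM MG132 for full effect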
# Conditions: ABC-DLBCL IkBa-CBG/CBR reporter, luminescence ratio (green luciferase fused to IkBa over red control in TMD8 lymphoma cells), 4 h; activity change, negative = inhibition: at 46.1 µM (top of the series)
# Method in brief: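 Cell line TMD8 (human ABC DLBCL), stably expressing tet-inducible CBG68-IkBa fusion and CBR; IMDM/0.5% FBS; cpd up to 46 uM; dox induction, 4 h, 37C/5% CO2; dual luminescence; green/red ratio; MG132 control.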
# Potency is read from the fitted curve at half-maximal effect.
SMILES,Potency,"activity change, negative = inhibition"
COc1ccc(NC(=O)CSc2nc(N)c(C(=O)Nc3ccc(N(C)C)cc3)s2)cc1,"inconclusive: 2.31 µM [falling, full curve]",
Cc1nc(-c2cccc(NC(=O)c3cccs3)c2)cs1,,inconclusive: -17%
O=C(c1ccc(-c2ccccc2Cl)o1)N1CCC1,,inconclusive: 0.634%
Cc1ccc(NC(=S)NC(NC(=O)c2ccccc2C)C(Cl)(Cl)Cl)c(C)c1 (stereo not given),,inconclusive: 13.9%
COc1cc(OC)c2ccc(=O)oc2c1C(CCN1CCCC(C)C1)c1ccc(N(C)C)cc1 (stereo not given),,inactive
COc1ccc(NC(=O)NC(C)(C(F)(F)F)C(F)(F)F)cc1,,inactive
COc1ccccc1NC(=O)c1cc2ccccc2o/c1=N\O,"inconclusive: 22.4 µM [falling, single point]",
COC(=O)/C=C/S(=O)(=O)c1ccc(NC(C)=O)cc1,"inconclusive: 3.16 µM [falling, single point]",
CC(C)(O)CCC(C)(C)O,"inconclusive: 6.51 µM [falling, single point]",
CCN(CC)C(=O)COc1ccc(/C(C)=N/NC(=O)c2ccccc2O)cc1,,inconclusive: 393%
N=c1c2c(ncn1CCCO)Oc1ccc3ccccc3c1C2c1ccccc1 (stereo not given),,inconclusive: -9.97%
Cc1ccc(CCC(=O)Nc2ncc(Cc3cc(Cl)ccc3Cl)s2)o1,,inconclusive: -12.9%
O=C(CSc1nnc(-c2ccccc2)n1-c1ccccc1)c1ccc[nH]1,,inactive
C/C(=N\Nc1cc(N2CCOCC2)nc(C)n1)c1cccc([N+](=O)[O-])c1,,inactive
O=C(C1CCCN1S(=O)(=O)c1ccc(Cl)cc1)N1CCOCC1 (stereo not given),,inconclusive: 5.23%
CC(=O)N1C(=O)N(C)C2C1N(C(C)=O)C(=O)N2C (stereo not given),,inconclusive: 16.7%
COC(=O)c1ccn(Cc2ccccc2Cl)n1,"inconclusive: 15.8 µM [falling, single point]",
Cc1cccc(Oc2cnn(C(C)(C)C)c(=O)c2Cl)c1,,inactive
COc1ccc(CNc2ccc(Br)cc2)cc1,,inconclusive: 9.63%
C/C(=N/Nc1nc(-c2ccccc2)cc(-c2ccc(F)cc2)n1)c1cccc(N)c1,,inconclusive: 15.8%
N#CC1=C(N)NC(SCc2ccc(F)cc2)=C(C#N)C12CCCCC2,,inconclusive: -19.2%
O=C(Nc1ccccc1C(F)(F)F)N1CCC(n2c(=O)[nH]c3ccccc32)CC1,,inconclusive: 0.996%
CCc1cc(-c2[nH]ncc2-c2ccc(OC)cc2)c(O)cc1O,"inconclusive: 12.6 µM [falling, partial curve, poor fit]",
O=C(Nc1ccccc1Cl)N1CCSc2ccccc21,,inconclusive: 7.37%
N#Cc1nc(COc2ccc(Cl)cc2)oc1NCc1ccc2c(c1)OCO2,"inconclusive: 29.1 µM [falling, single point]",
O=C(N/N=C/c1ccc([N+](=O)[O-])cc1)c1ccccc1OCc1ccccc1,,inconclusive: -8.89%
COc1ccccc1CNc1ccc2nnc(CCNC(=O)c3ccccc3)n2n1,"inconclusive: 22.4 µM [falling, single point]",

SMILES,Potency,"activity change, negative = inhibition"
O=C(Nc1cccc(Cl)c1)N(Cc1nc2ccccc2c(=O)[nH]1)C1CCCC1,,inconclusive: 4.02%
NS(=O)(=O)c1ccc(CCNC(=S)NC(=O)c2ccccc2Br)cc1,"inconclusive: 20.6 µM [falling, partial curve, poor fit]",
O=C(NNC(=O)c1cc(C(F)(F)F)cc(C(F)(F)F)c1)c1ccc(Cl)cc1,,inconclusive: 1.83%
COC(=O)Cn1c(=NC(=O)c2ccc(S(=O)(=O)N3CCOCC3)cc2)sc2cc(S(N)(=O)=O)ccc21,,inconclusive: 5.86%
CNC(=S)NNC(=O)COc1cccc(C)c1C,,inactive
Cc1ccc(C(c2nnnn2Cc2ccccc2)N2CCN(Cc3ccccc3)CC2)cc1 (stereo not given),,inconclusive: -0.175%
Cn1cc(/C=C(\C#N)C(=O)Nc2ccccc2O)c2ccccc21,"inconclusive: 5.01 µM [falling, partial curve, poor fit]",
CC[C@]12c3[nH]c4cc(-c5ccco5)ccc4c3CCN1C(=O)[C@@H](CC(=O)NCCC1=CCCCC1)C[C@@H]2C(=O)N1CCN(C(=O)c2ccco2)CC1,,inconclusive: -13.1%
CN(C)S(=O)(=O)NCCNC(=O)c1cc(OCC(F)(F)F)ccc1OCC(F)(F)F,,inconclusive: 9.52%
CCc1nnc(NC(=O)c2ccncc2)s1,,inactive
O=C(Nc1ccc(F)cc1)c1cccc2c1C(=O)N(CC1CCCO1)C2 (stereo not given),,inconclusive: -7.63%
O=C(CSc1nnc(-c2ccco2)o1)c1ccc[nH]1,"inconclusive: 12.6 µM [falling, single point]",
COc1cc(C(=O)N2c3ccccc3CCC2C)cc(OC)c1OC (stereo not given),,inactive
NCCCC[C@H]1NC(=O)[C@H](CCC(=O)O)NC(=O)c2cc([N+](=O)[O-])cc(I)c2OCC[C@@H](C(N)=O)NC1=O,,inactive
O=C(O)c1ccccc1CSC1=NCCS1,,inconclusive: 0.805%
O=C(NCc1ccc(F)cc1)C(=O)c1cn(CC(=O)N2CCCC2)c2ccccc12,"inconclusive: 10 µM [falling, partial curve]",
C=CCSc1nc(C)c(CCC(C)C)c(=O)[nH]1,,inconclusive: 23.7%
C/C(=N\NC(=O)c1ccccn1)c1ccc(C(=O)O)s1,"inconclusive: 11.2 µM [falling, partial curve]",
COc1ccc(C(=O)c2sc(Nc3ccccc3)nc2N)cc1,,inconclusive: 16.8% and inconclusive: 7.24%
COc1ccc(CN2CCOCC2)cc1OC,,inactive
O=C(Cc1ccccc1)NC(=S)Nc1ccc(N2CCCCC2)cc1,,inconclusive: -2.19%
CCN(CC)c1ccc(/C=N/Nc2ccccc2)c(O)c1,,inconclusive: 8.41%
CCNS(=O)(=O)c1c(C)cc(N2CCCC2=O)cc1C,,inconclusive: -1.53%
Oc1c(Br)cc(Br)cc1C=Nc1ccc2c(c1)OCO2,,inactive
c1ccc(-c2ccc(OCCOCCn3cncn3)cc2)cc1,,inconclusive: 4.16%
CC(C)CN(C(=O)c1cccc(S(=O)(=O)N2CCN(Cc3ccccc3)CC2)c1)C1CCS(=O)(=O)C1 (stereo not given),,inconclusive: -2.33%
COc1cccc(N2CC(NC(=O)c3cc(Cl)ccc3OC)CC2=O)c1 (stereo not given),,inconclusive: -12.9%

# Some values from the results shown.
# Under activity change, negative = inhibition, `COc1cc(C(=O)N2c3ccccc3CCC2C)cc(OC)c1OC` (stereo not given) shows inactive
# Under activity change, negative = inhibition, `CCNS(=O)(=O)c1c(C)cc(N2CCCC2=O)cc1C` shows inconclusive: -1.53%

# Continuation:

SMILES,Potency,"activity change, negative = inhibition"
O=C1CCN(Cc2ccccc2)C(=O)N1c1ccccc1,"inconclusive: 0.447 µM [falling, full curve, poor fit]",
CC(Cl)C(=O)Nc1ncc(C(F)(F)F)cc1Cl (stereo not given),,inconclusive: -20.6%
COc1ccc(-c2nn3c(-c4ccccc4)nnc3s2)cc1,,inactive
CSCCC(NS(=O)(=O)c1ccc(Cl)cc1)C(=O)OCc1cccc(Cl)c1 (stereo not given),,inactive
CCOC(=O)c1nnc2cc(C)nn2c1C,,inactive
Cc1ccc(C(CC(=O)NCCCN(C)C)c2ccc(OC(C)C)cc2)cc1 (stereo not given),,inconclusive: 1.2%
Cc1cc(C)nc(N/N=C/c2ccccc2OCc2ccc([N+](=O)[O-])cc2)n1,,inconclusive: -14.4%
CN(C(=S)NC(=O)/C=C/c1ccc(F)cc1)C1CCCCC1,,inconclusive: 6.29%
C/C(=N\Nc1ccc(Cl)c(C(=O)O)c1)c1cccs1,"inconclusive: 11.2 µM [falling, partial curve, poor fit]",
Cc1ccc(-n2c(SCC(=O)NCc3ccco3)nc3c([nH]c4ccccc43)c2=O)cc1,,inconclusive: 0.0584%
Cc1cc(C)c2c(NC(=O)c3ccccc3)c(C(=O)Nc3ccc(F)cc3)sc2n1,"inconclusive: 4.47 µM [falling, partial curve, poor fit]",
O=C(NCc1cccnc1)C(=O)Nc1ccc2c(c1)OCO2,"inconclusive: 22.4 µM [falling, partial curve, poor fit]",
COc1ccccc1-c1nnc(NC(=O)Cc2ccccc2)o1,"inconclusive: 35.5 µM [falling, single point]",
Cn1c(O)c(N=NC(=S)Nc2ccccc2F)c2cc(S(=O)(=O)N3CCOCC3)ccc21,"inconclusive: 10 µM [falling, partial curve]",
Cc1nnc(NC(=O)c2ccc(S(=O)(=O)N(C)Cc3ccccc3)cc2)o1,,inactive
N#Cc1ccc(CSc2nnc(Nc3ccccc3)s2)cc1,,inconclusive: 0.34%
C[C@H](CO)N1C[C@H](C)[C@@H](CN(C)S(=O)(=O)c2ccc(F)cc2)Oc2c(NC(=O)Nc3ccc(C(F)(F)F)cc3)cccc2C1=O,,inconclusive: -1.56%
O=C(Cc1ccc([N+](=O)[O-])cc1)N/N=C/c1ccccc1F,,inconclusive: -3.64%
Cc1ccc(/C=C2\SC(=S)N(CCCC(=O)Nc3cc(C)on3)C2=O)cc1,"inconclusive: 3.55 µM [rising, full curve, poor fit]",
O=c1nc2s/c(=C\c3ccc(-c4ccccc4[N+](=O)[O-])o3)c(=O)n2nc1-c1ccccc1,,inactive
O=c1[nH]cnc2c1c(-c1ccccc1)cn2-c1ccc(F)cc1,,inconclusive: -3.8%
O=C(Nc1ccc(Br)cc1)C1OCCc2ccccc21 (stereo not given),,inactive
COc1ccccc1Nc1nc(N)nc(CN2CCc3ccccc3C2)n1,"inconclusive: 29.1 µM [falling, single point]",
CCCCN(C)CCn1c(=S)[nH]c2ccc(N3CCOCC3)cc2c1=O,,inactive
N#CC(C#N)=C1NC2(CCCC2)Cc2ccccc21,,inconclusive: 0.291%
Cc1ccc(C(NC(=O)c2ccccc2)C(Cl)(Cl)Cl)cc1 (stereo not given),,inconclusive: 3.32%

# Reference: PubChem BioAssay AID493014 (National Center for Advancing Translational Sciences (NCATS), 2011)
